Measured values reported in PMC4568394, “Differentially expressed seed aging responsive heat shock protein OsHSP18.2 implicates in seed vigor, longevity and improves germination and seedling establishment under abiotic stress” (Frontiers in Plant Science, 2015).
No constants are given. Whether binding was seen depends on the method and setting. Some binding calls cover weakened binding; strength is not graded here. Tags and fused reporters may be left off the sequences shown.

Biological target: OsHSP18.2, a class II cytosolic small heat shock protein of rice (6X His tagged recombinant) (Oryza sativa indica var. PB-1) (UniProt Q5VRY1)
Test: native gel or EMSA; 5% native polyacrylamide gel of the purified protein, with marker bands; both purified

- binding: binds
B1: OsHSP18.2, a class II cytosolic small heat shock protein of rice (6X His tagged recombinant) (natural protein, Oryza sativa indica var. PB-1, UniProt Q5VRY1 1-166, looked up)
chain: MESAMFGLETPLMTALQHLLDIPDGEGGAAGKQGATGGPTRAYVRDARAMAATPADVKDLPGAYAFVVDMPGLKSSDIKVQVEEERLLVISGERRRGGGEEEKEESCKYLRMERRMGKFMRKFVLPDNADVDKISAVCQDGVLTVTVEKLPPPEPKKPKTIEVKVA
notes: OsHSP18.2, class II heat shock protein, Oryza sativa indica var; complete ORF / CDS, 166 aa, predicted 18.2 kDa; the indica PB-1 clone may differ from it; pET23b usually adds a C-terminal His6 tag; copies: 12
